In patent US9850219B1, “Phenothiazine derivatives and methods of use thereof” (Acenda Pharma, Inc., priority 2016, dated 2017):

Legend:
Type in all cases: cell-based
[1] = test system: H441GL; assay: Cytotoxicity, sulforhodamine B (SRB) assay, H441GL; conditions: Homo sapiens, 48 h, NA indicates no activity
From the text: (§1) Human non-small cell lung cancer (NSCLC) cell lines (e.g., A549, H441GL and H1299), colon cancer cell lines (e.g., HCT116 and DLD1), breast cancer cell lines (e.g., MCF7 and MDA-MB-231), and pancreatic cancer cell lines (e.g., PANC-1 and SUIT-2) were used in cytotoxicity studies. These NSCLC cell lines have intrinsic resistance to epidermal growth factor receptor (EGFR) inhibitors, e.g., gefitinib. A549 and H441GL are EGFR-wild type adenocarcinoma cell lines. H1299 is an EGFR-wild type large cell carcinoma cell line. HCT116 and DLD1 are metastatic colon cell lines. MCF7 is a hormone-responsive breast cancer cell line. MDA-MB-231 is a triple-negative breast cancer cell line. PANC-1 is a metastatic adenocarcinoma cell line. SUIT-2 is a pancreatic ductal adenocarcinoma cell line. […]
(§2) Cell viability was assessed using the sulforhodamine B (SRB) assay. […] After air-drying, 100 μL of 10 mM Tris base was added to each well and the absorbance was read at 530 nm. Cytotoxicity is expressed as the percent of cells in drug treated wells relative to number of cells in the solvent only control (set to 100%). Each experiment was performed independently in triplicate and cytotoxicity IC50 value of each test compound was calculated from cytotoxicity data obtained at various concentrations.

[2] = test system: H1299; assay: Cytotoxicity, sulforhodamine B (SRB) assay, H1299; conditions: Homo sapiens, NCI-H1299, H1299, 48 h
From the text: as §1, §2

[3] = test system: A549; assay: Cytotoxicity, sulforhodamine B (SRB) assay, A549; conditions: Homo sapiens, A549, 48 h, NA indicates no activity
From the text: as §1, §2

SMILES: CN1CCN(CCCN2c3ccccc3Sc3ccc(Cl)cc32)CC1 [PCP, prochlorperazine, reference compound]
- IC50 [1]: 12.9 µM
- IC50 [2]: 28.7 µM
- IC50 [3]: 14.6 µM
